Results from publication PMC11434081.
These are yes or no findings as the source states them, for the method shown.

Biological target: T1, zipper motif^mut (hnRNP A1 aa 259–264, D262V) (human)
T1 chain: SYNVFG
Assay: thioflavin T fluorescence (fibrillation assay); self-association of the peptide into cross-beta fibrils; 40 µM peptide, 13 µM ThT, 0.5 mM DTT, 40 mM HEPES-KOH pH 7.4, 150 mM KCl or NaCl (methods), room temperature (RGG-PLD^mut-NLS also at 37 °C), at least 3 h; both purified
Conditions: remark: other sources report otherwise

binding: no binding (tested: 40 µM peptide)
Binder: SYNVFG [zipper motif^mut (hnRNP A1 aa 259–264, D262V)]
